In patent US20260159603A1:
Residue numbers refer to the chain shown, from its start. Results are given in words; binding and its absence hold for the method and conditions named. Some results given as binding are weak or reduced against the parent protein; the word gives no strength. For part of these data: Tags and fused reporters may be left off the sequences shown.

Sequences of proteins named here, by UniProt entry; tags and fusion partners are left off. Residues count along the entry.
UniProt P06127, residues 25-495: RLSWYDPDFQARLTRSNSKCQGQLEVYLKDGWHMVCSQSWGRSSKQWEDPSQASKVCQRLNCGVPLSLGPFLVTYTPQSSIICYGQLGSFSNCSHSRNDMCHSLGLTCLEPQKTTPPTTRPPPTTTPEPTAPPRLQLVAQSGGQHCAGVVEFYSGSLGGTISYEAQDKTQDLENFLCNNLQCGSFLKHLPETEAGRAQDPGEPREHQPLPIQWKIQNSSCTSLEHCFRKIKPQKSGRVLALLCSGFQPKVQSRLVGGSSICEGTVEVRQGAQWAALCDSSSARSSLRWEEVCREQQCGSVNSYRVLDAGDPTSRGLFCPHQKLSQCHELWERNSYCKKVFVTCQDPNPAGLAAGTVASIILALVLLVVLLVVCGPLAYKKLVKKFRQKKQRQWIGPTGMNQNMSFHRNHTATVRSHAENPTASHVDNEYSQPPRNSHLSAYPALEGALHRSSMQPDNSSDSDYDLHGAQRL

Legend:
[1] = target: human CD5 on transfected HEK293T cells (human) (UniProt P06127); test: flow cytometry, periplasmic extract on transfected HEK293T cells
CD5 on Jurkat cells = CD5 on Jurkat cells (UniProt P06127); test: flow cytometry, VHH-Fc titrated on Jurkat cells

B1: ABTx315 (VHH, not shown: large carriers)
VHH: QVQLVESGGGLVQAGGSLRLSCAASGRTFGTYTMGWFRQAPGREREFVAAISWSAGRTYYADSMKGRFTISRDNAKNTVYLQMNSLKPEDTAVYYCAADPWTSDSDYDRLTMYDYWGQGTQVTVSS
binding [1]: binds

B2: ABTx320 (VHH, not shown: large carriers)
VHH: QVQLVESGGGLVQAGGSLRLSCAASGPAFSSSGMGWFRQAPGKAREFVASMDWTGGSTYYGDSVKGRFTVSRDNAKMTVHLQMNSLRPEDTAVYYCARGTSGVAAVNLRGFFSWGPGTQVTVSS
binding [1]: binds

B3: ABTx321 (VHH, not shown: large carriers)
VHH: QLQLVESGGGLVQPGESLRLSCVVSGDIFSFVGWGWYRQAPGKQREVVAQISTGGLTNYADSVKGRFAISRDNAKRTVYLQMNSLKFEDTAVYYCNVPGHPWGQGTQVTVSS
binding [1]: binds

B4: ABTx322 (VHH, not shown: large carriers)
VHH: QLQLVESGGGLVQPGGSLRLSCAASGSDFLVDATTWFRQAPGNQREFVAIMDIGGVTEYADSVKGRFTISRDHTKNTVYLQMNSLKVEDTAVYYCNTRGLWGQGTLVTVSS
binding [1]: binds

B5: ABTx323 (VHH, not shown: large carriers)
VHH: QVQLQESGGGLVQAGGSLRLSCATSGITSSINVIGWYRQAPGKQRELVALVNSGGQTHYADSVKGRFTISRDNAKNTVFLQMNSLKPEDTAEYYCHGRYGIDNYWGEGTQVTVSS
binding [1]: binds

B6: ABTx324 (VHH, not shown: large carriers)
VHH: QVQLVESGGGLVQPGGSVRLSCATSGSIFSTNVMGWYRQAPGKEREFVALIRGGGSTHYADSVKGRFIISRENAKTTVYLQMNGLKPEDTAVYYCVIWLGSPGAMSDYWGQGTQVTVSS
binding [1]: binds

B7: ABTx325 (VHH, not shown: large carriers)
VHH: QVQLVESGGGLVQPGGSLRLSCAASGSDASTNNMAWYRQAPGKEREFVALIRTGGSTHVADSMKGRFTISRENAKNTVYLQMNSLKPEDTAVYYCVIWTGSPGALSDYWGQGTQVTVSS
binding [1]: binds

B8: ABTx315 VHH-Fc (Fc fusion, not shown: a dimerising Fc or GST)
chain: B1 VHH
binding (CD5 on Jurkat cells): binds

B9: ABTx316 VHH-Fc (Fc fusion, not shown: a dimerising Fc or GST)
chain: QVQLVESGGGLVQAGGSLRLSCAASGGTVSSYAMGWFRQAPGKEREFVAVISWSGGRTYYADSVKGRFTISRDNAKNTVNLQMNSLKPEDTAVYYCAADPWTSDSDYERLTMYDYWGQGTQVTVSS
binding (CD5 on Jurkat cells): binds

B10: ABTx317 VHH-Fc (Fc fusion, not shown: a dimerising Fc or GST)
chain: QVQLVESGGGLVQAGASLRLSCAASGRTTYNMGWFRHAPGKDREFVAAIDLYGRATRYANSVKGRFTISRDNAKNTVYLQMNSLKPEDTAVYYCAADTSLPLGVLTKSQRMYGAWGQGTQVTVSS
binding (CD5 on Jurkat cells): binds

B11: ABTx318 VHH-Fc (Fc fusion, not shown: a dimerising Fc or GST)
chain: QVQLQESGGGSVQAGGSLRLSCAASGRAFSAYAMGWFRQAPGKEREFVAAINWNGDTALRWNGFATRYADSVKGRFTISRVIAKNTVNLQMNSLKPEDTAVYYCAADTVVSGSYYLAARAEDYEYWGQGTQVTVSS
binding (CD5 on Jurkat cells): binds

B12: ABTx319 VHH-Fc (Fc fusion, not shown: a dimerising Fc or GST)
chain: QVQLVESGGGLVQPGGSLRLSCAASGFTFSMYSMSWVRQAPGKRLEWVSSISTGARDTAYADSVKGRFTISRDNADNTLYLHMNNLKPEDTAVYYCANGDLRYGPDGYDYRGQGTQVTVSS
binding (CD5 on Jurkat cells): binds

B13: ABTx320 VHH-Fc (Fc fusion, not shown: a dimerising Fc or GST)
chain: B2 VHH
binding (CD5 on Jurkat cells): binds

B14: ABTx321 VHH-Fc (Fc fusion, not shown: a dimerising Fc or GST)
chain: B3 VHH
binding (CD5 on Jurkat cells): binds

B15: ABTx322 VHH-Fc (Fc fusion, not shown: a dimerising Fc or GST)
chain: B4 VHH
binding (CD5 on Jurkat cells): binds

B16: ABTx326 (VHH, not shown: large carriers)
VHH: QVQLVESGGGLVQPGGSLRLSCAASGRTFINYAAGWFRQAPGKEREFVARISRSGGRTDYADSVKGRFTISRDNAKSTVYLQMNSLRPEDTAVYYCAEATVWEFTDGADQYDYWGQGTQVTVSS
binding [1]: binds

B17: ABTx323 VHH-Fc (Fc fusion, not shown: a dimerising Fc or GST)
chain: B5 VHH
binding (CD5 on Jurkat cells): binds

B18: ABTx324 VHH-Fc (Fc fusion, not shown: a dimerising Fc or GST)
chain: B6 VHH
binding (CD5 on Jurkat cells): binds

B19: ABTx325 VHH-Fc (Fc fusion, not shown: a dimerising Fc or GST)
chain: B7 VHH
binding (CD5 on Jurkat cells): binds

B20: ABTx326 VHH-Fc (Fc fusion, not shown: a dimerising Fc or GST)
chain: B16 VHH
binding (CD5 on Jurkat cells): binds

B21: ABTx327 VHH-Fc (Fc fusion, not shown: a dimerising Fc or GST)
chain: QVQLVESGGGLVQPGGSLRLSCVASGGTFSTYGMGWFRQAPGKEREFVAVITGSGVGTQYADSVKDRFTISRENAKNTVYLQMNTLKLEDTAVYYCVSGHRPGWAVIRADAYEYWGQGTQVTVSS
binding (CD5 on Jurkat cells): binds

B22: ABTx328 VHH-Fc (Fc fusion, not shown: a dimerising Fc or GST)
chain: B3 VHH with L2V, V32I, V47L, S52N, N58D, A68T, V97F, P101S
binding (CD5 on Jurkat cells): binds

B23: ABTx329 VHH-Fc (Fc fusion, not shown: a dimerising Fc or GST)
chain: QLQLVESGGGLVQPGESLRLSCAASGFSFSRVGMNWYRQAPGKERELVASISSDGSRTNYAHFVKGRFTISRDNVKNMVYLQMNSLKLEDTAVYYCNVPGNSWGQGTQVTVSS
binding (CD5 on Jurkat cells): binds

B24: ABTx330 VHH-Fc (Fc fusion, not shown: a dimerising Fc or GST)
chain: EVQLVESGGGLVQPGGSLRLSCAASGFPFSSSFMSWVRQAPGKGLEWVSTIYSDGSTYYADSVKGRFTISRDNAKKTAYLQMNSLKAEDTAVYYCATVTGSIRGQGTQVTVSS
binding (CD5 on Jurkat cells): binds

B25: ABTx331 VHH-Fc (Fc fusion, not shown: a dimerising Fc or GST)
chain: B10 chain with K107E, M111L
binding (CD5 on Jurkat cells): binds

B26: ABTx327 (VHH, not shown: large carriers)
VHH: B21 chain
binding [1]: binds

B27: ABTx328 (VHH, not shown: large carriers)
VHH: B3 VHH with L2V, V32I, V47L, S52N, N58D, A68T, V97F, P101S
binding [1]: binds

B28: ABTx329 (VHH, not shown: large carriers)
VHH: B23 chain
binding [1]: binds

B29: ABTx316 (VHH, not shown: large carriers)
VHH: B9 chain
binding [1]: binds

B30: ABTx330 (VHH, not shown: large carriers)
VHH: B24 chain
binding [1]: binds

B31: ABTx331 (VHH, not shown: large carriers)
VHH: B10 chain with K107E, M111L
binding [1]: binds

B32: ABTx317 (VHH, not shown: large carriers)
VHH: B10 chain
binding [1]: binds

B33: ABTx319 (VHH, not shown: large carriers)
VHH: B12 chain
binding [1]: binds
